# Results reported in PubChem BioAssay AID1508600 (Functional Genomics Laboratory (NCATS/FGL), 2020).
# About 3,700 (7%) of roughly 53,000 sequences were called active.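 Rule for the calls: active = gene knockdowns whose robust z-score for IL-1 alpha signal is at least 2 or at most -2, so actives lie on both sides; inactive = the rest.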 This is one part of the list.
# Assay: Components of the Cytosolic LPS Sensing Pathway: Gene Identification via Genome-wide siRNA Screen;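 note: robust z of the log signal after scaling to non-targeting control siRNA wells of the plate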
# Conditions: RAW264.7 macrophages, IL-1a HTRF, actives lie on both sides, screened at 100 nM (by protocol), cells primed 5 h with Pam3CSK4 first
# How it was run: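 Knockdown: 100 nM siRNA, 48h, RAW264.7. Stimulation: Pam3CSK4 5 h, then LipidA via TransIT-TKO 24 h. Output: supernatant IL-1a HTRF, negative-control-normalized, log robust z-score; viability by CellTiter-Glo.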
row,Sequence,z-score
1,GGCGAUGAAGUCUACGUGATT against C1ql2,inactive: 0.344
2,GGCGGUCAAGUGAGGUUCUTT against Hhex,active: 3.62
3,GGAUGUUGCUGUCGAUACATT against Kcnq3,inactive: 1.82
4,GUGCCAGUUGUGACAAUAUTT against Gm5128,inactive: 0.251
5,CCUAAGUCCAAUCACACCUTT against Olfr1076,inactive: 0.525
6,CCCAAACUGAAUUAAGCAGTT against Spata7,inactive: -0.515
7,GGAUUCUUCAUUUCUAGUGTT against C1qtnf6,inactive: 0.231
8,GGAGGUGAUCUGUACCGGATT against Nek4,inactive: -0.603
9,GCUGGAAGCAUUUGUUUUUTT against Uap1,active: 2.19
10,GGCCGUUGUAUGAAGAGUATT against Ace2,inactive: -0.614
11,GGAGAUGCUGGACUGCUUUTT against Htr1b,inactive: 0.195
12,GGCAACUUUUAACUAACUUTT against Gbp2,inactive: -0.626
13,GGAGAAGGUUCACUCUGAUTT against Traf1,inactive: -0.666
14,GCCGAGUGAAUGAAAGGACTT against Ppp1r32,inactive: -0.758
15,GCUCGACAGCUACAGAGUUTT against Kdm1a,inactive: -0.0798
16,GGAUAUUCAGCACUGGGAATT against Rrm2,inactive: -0.525
17,GGCCUUAGAUAGUUACAUATT against Gm4759,inactive: -0.173
18,GGCCUGGAUCAUUGUGGUGTT against 2810025M15Rik,inactive: 1.35
19,CCAAUUGCUAAUCCUUUGUTT against Pin1,inactive: 1.52
20,GGUAUCAUGCUGAGAGAGATT against B4galt6,inactive: -0.461
21,GGAGUGGAGUUCAACAUUGTT against Atox1,inactive: 0.0646
22,GUUUGCUGCUAUCUCUUUUTT against Atp6v0e,inactive: 1.6

row,Sequence,z-score
1,GGCAUUUUCCACAUGCGGCTT against Olfr139,inactive: -0.496
2,GGUGCAAGAACACUAUGAUTT against U2af1l4,inactive: 0.0528
3,GGUUUUAGUAUAAAGGCAGTT against Arl15,inactive: -1.55
4,GGACCAUCCCUGUUUUAUATT against Ifrd2,inactive: -0.0712
5,GGAGAUUAUGAAAGAUUUGTT against Pank3,inactive: 0.197
6,UGGCCUUUGCCCUACAUUUTT against Orai3,inactive: 0.266
7,GGACAUCAGUUGUCCUAGCTT against Ano6,inactive: -0.285
8,GGAGUCCUCUAUGUGCAGATT against Pla2g4b,inactive: -0.68
9,GCAUGCUACGAUCUGGACUTT against AI661453,inactive: 0.714
10,GGAGCUCCUACCAAGACUUTT against Klhl38,inactive: 1.07
11,GCACGGAUGCAGUGAAUAGTT against Akirin2,inactive: -0.108
12,GCUUUGGAUAGUAGACAGCTT against BC055324,inactive: 0.199
13,GGACAUCACCUGUCAAAGUTT against Zar1,inactive: 0.0246
14,GCCUGGUUUAACAAUCCUCTT against Zmat4,inactive: -1.4
15,GGUUGUGACUUCACGUUCCTT against Sult1a1,inactive: -0.477
16,CCUACUCCUUCUUGAUUUATT against Lpl,inactive: 1.31
17,GCACUUCAACCCUAACAUUTT against Acp2,inactive: -0.0239
18,GCCAUGUUCAAUAUUAGGATT against Rps3a1,inactive: -0.311
19,GGGUGAGGAGACAGAAUUCTT against Dnajc5,inactive: 1.19
20,GCAGCUAAGGUAUCUUCAUTT against 9930021J03Rik,inactive: 1.43
21,GGUCUCCUACUUCCACUGCTT against Sppl3,inactive: 0.33
22,GGUUUUUGCCAGUAAUAACTT against B4galt4,inactive: 0.0609

row,Sequence,z-score
1,GGUUUGAUAUCCAGGUGCATT against Sppl2b,inactive: 0.373
2,GGUGCAUGUCUUCAUCCACTT against Rnase12,active: 3.04
3,CAAUCCUCAACGAUUACAUTT against Ncor1,active: 2.05
4,GGUGUUUUGUGAAUUGAAATT against Leprotl1,inactive: -1.05
5,GCUACUCAGUCAUUGAGCCTT against Tatdn2,inactive: -1.85
6,GGAUUAUUCAAGGACUUUGTT against Bmf,inactive: 0.48
7,GGCAGUUAACACUUAAUGATT against Foxp2,inactive: 0.609
8,GGCACCAGUCCUGUUAGAUTT against A330008L17Rik,inactive: -0.375
9,GCCUAUACACUUGGUAUUGTT against Ptges3,inactive: -0.166
10,GCAACAUUGAUUCUAGGAUTT against Olfr1391,inactive: -1.48
11,GGACUAAGCCUGAAUGUGUTT against Zdhhc5,inactive: -1.46
12,GGUGCCCUACAGUGAGAUATT against Rpl13,inactive: 1.91
13,CCUGAAAUCCUGUAGCUACTT against Pgap3,inactive: 1.35
14,GGAAAUCGAUAGUUUCUUCTT against Olfr1302,inactive: -0.0687
15,GCCUUGACCUGAUUUCUACTT against Tas2r131,inactive: -0.525
16,GGCACUUAAGUUUCAUAAGTT against Qars,inactive: 0.466
17,GGUUUCGUAUAAAUUCUCUTT against Ank,inactive: 1.53
18,GGAACAAGCAAGUCAAACATT against Olfr770,active: 2.24
19,GGAUCUUACUAUCACCAGCTT against Foxf1,inactive: 1.99
20,GGCGGGUACAUAAGAAUCUTT against Tusc2,inactive: 0.863
21,GGAGUCUGUGGAUAGUGUATT against Creb1,inactive: 0.232
22,GCAAAAGGGAUUCCUCGAUTT against Zdhhc14,inactive: -0.708

row,Sequence,z-score
1,GGAAGAAUUGAACCACAGGTT against Papolg,inactive: -1.72
2,CCCAAAAAAAUCGUACUGUTT against Rbx1,inactive: 0.062
3,GGUAAUCCUGACUUCGUGGTT against Asb17,inactive: 0.915
4,GGACAUUUCACAAGUCAAATT against Eloc,inactive: 1.81
5,GGAACUUGAGGUUUUCUGGTT against Spag17,inactive: -1.89
6,GCCAAUGUAACCUUCAAAATT against Lypla1,inactive: 0.351
7,GGGACCCAAACAUUGAAGCTT against Fez1,inactive: 0.547
8,CCGAGUUUGGCUAUAAAGGTT against Tufm,inactive: -0.316
9,GGAGCGAUGUAGUUGCUUGTT against Olig1,inactive: 1.02
10,GCAGUGUGUCCUAAAGCUCTT against Osbpl1a,inactive: -1.23
11,GGAAUUGACCAAGACAUAUTT against Mep1b,inactive: 0.101
12,GGAGAGUGAAGAUUAAAUCTT against Golt1a,inactive: -0.035
13,GGGUGCCAAACACCUCAGUTT against Igfbp2,inactive: -0.563
14,GGAGAAGGAGCAGAUUAAATT against Krt8,active: 2.07
15,CCUACUCUACAACAUGGAATT against Alox15,inactive: 0.57
16,GGAAUUUGCCAAUGACUUCTT against Cygb,inactive: 1.06
17,GCCAAGUGCUACAACAUCCTT against Ifitm5,inactive: -0.64
18,GGUACUUCCUCAUUUACCUTT against Zdhhc4,inactive: 0.541
19,GCACAUUUUAGCCUAAUGGTT against Tpm3,inactive: -0.785
20,GGAAAACCUUUUCAGCUUCTT against Nsmf,inactive: 0.4
21,CCAAAAGUGGAGAGCGACATT against Cnrip1,inactive: -1.32
22,GCAAAGAUAACAGUAUGUUTT against Polr2m,inactive: -0.216

row,Sequence,z-score
1,GGCUAUUGUGCAGUUGAAGTT against Plec,inactive: 0.119
2,GGCACUGAGAUCUGUAAUUTT against Wipi1,inactive: 1.13
3,GGCCGAAGCCCAGAAACAATT against Itih4,inactive: -0.622
4,CCGAUGCAUCUGCUUUAUUTT against Mfsd9,inactive: 0.149
5,GGGUUUCUUCCCUGAGCUATT against Nxf7,inactive: -1.97
6,GGAUUCCCUAUCCCAUACCTT against Araf,inactive: 0.78
7,GCAGCGUAUGCUAAUAUAATT against Cln3,inactive: 1.16
8,GUGUCUCUGUAGUUGUUACTT against Olfr494,inactive: -0.739
9,GGUCAAGUCAUCAGAAAUGTT against Sdr42e1,inactive: 0.472
10,GGCCAUUUAAUUUCAUGGCTT against Skida1,inactive: 0.398
11,GGCCGAGAGUAUUUCUACATT against Efna5,inactive: -0.254
12,GGCUGUUGAACAGGUUAUCTT against Mis12,inactive: 0.645
13,GGGUUCUGGUGGCUAAGUUTT against Fam189a1,inactive: -0.0493
14,CCUUGACCCAGAUUGAGAATT against Xkr6,inactive: 0.363
15,GGAAGAAGGCAGUGCUGAUTT against Ap3d1,inactive: -0.317
16,CCCAAAAUUAUGGAAGCCATT against Scgb2b20,inactive: -1.65
17,GGAGAGAUGUCCACAGCCUTT against Smarcal1,inactive: -1.89
18,GGAAAAUGAAGGUUCAGAATT against Pkib,inactive: -0.185
19,GGAUCUCACCCAACAGGCUTT against Samd7,inactive: 0.416
